Source: PubChem BioAssay AID330 (DTP/NCI, 2004)
The list shows only some results of the screen, not a fair sample: it is rich in T/C values a quarter to a half above the control, in often repeated tests (any T/C) and in doses without a T/C. Further doses and runs are listed elsewhere. T/C: endpoint of the treated group in % of that of the vehicle group. Some doses have a count of surviving animals in place of a T/C: the source holds a T/C of zero for them, seemingly a mark for toxic or unscored doses. Some survivor counts are full or nearly so, which does not show that the dose was tolerated: survival well below the control is almost never listed, so the zero probably covers shortened survival too. Counts of survivors are from the toxicity check (mostly the fifth day) where no day follows; animals may have died later. Schedules are NCI's codes, read here as Q, the interval in days (D) or hours (H), X, the number of doses. Additions like (4×) count equal records among those shown. Some entries hold several experiments; the results are listed from low to high. For survival time, this PubChem deposit counts one and a half times the control or more as active, and values a quarter to a half above the control carry no call in these data; other NCI protocols may use other cut-offs. Some T/C values carry the count of animals alive at the toxicity check (mostly the fifth day); where none is given, no animal had died by that day.

Test system: P388 leukemia ip, CD2F1 mice, survival T/C
Experiment: NCI In Vivo Anticancer Drug Screen. Data for tumor model P388 Leukemia (intraperitoneal) in CD2F1 (CDF1) mice
Settings: T/C endpoint: median survival time, higher T/C = longer survival
[1] = dose: 200.0 mg/kg/injection, schedule: Q04DX003 (ip), vehicle: saline with Tween-80
[2] = dose: 400.0 mg/kg/injection, schedule: Q04DX003 (ip), vehicle: saline with Tween-80
[3] = dose: 50.0 mg/kg/injection, schedule: Q01DX005 (ip), vehicle: Klucel (hydroxypropylcellulose) (HPC)
[4] = dose: 200.0 mg/kg/injection, schedule: Q01DX009 (ip), vehicle: saline with Tween-80
[5] = dose: 240.0 mg/kg/injection, schedule: Q01DX005 (ip), vehicle: saline with Tween-80
[6] = dose: 50.0 mg/kg/injection, schedule: Q01DX009 (ip), vehicle: saline
[7] = dose: 200.0 mg/kg/injection, schedule: Q01DX009 (ip), vehicle: saline
[8] = dose: 200.0 mg/kg/injection, schedule: Q01DX005 (ip), vehicle: saline
[9] = dose: 240.0 mg/kg/injection, schedule: Q01DX005 (ip), vehicle: Klucel (hydroxypropylcellulose) (HPC)
[10] = dose: 50.0 mg/kg/injection, schedule: Q01DX009 (ip), vehicle: saline with Tween-80
[11] = dose: 100.0 mg/kg/injection, schedule: Q01DX009 (ip), vehicle: saline with Tween-80
[12] = dose: 100.0 mg/kg/injection, schedule: Q01DX005 (ip), vehicle: saline

What does the source list for `COc1cccc2c1C(=O)c1c(O)c3c(c(O)c1C2=O)C[C@@](O)(/C(C)=N\NC=O)C[C@@H]3OC1CC(N)C(O)C(C)O1` (stereo partly drawn)?
T/C (dose: 5.0 mg/kg/injection, schedule: Q01DX001 (ip), vehicle: saline): 145 % of control; T/C (dose: 13.3 mg/kg/injection, schedule: Q01DX009 (ip), vehicle: saline): 145 % of control; T/C (dose: 13.3 mg/kg/injection, schedule: Q04DX003 (ip), vehicle: saline): 145 % of control; T/C (dose: 61.7 mg/kg/injection, schedule: Q01DX001 (ip), vehicle: saline): 145 % of control

Which results are given for `CC1(C)COC(=O)C(C)(C2(C)NC(C)(C)COC2=O)N1` (stereo not drawn)?
survivor count (dose: 1600.0 mg/kg/injection, schedule: Q01DX001 (ip), vehicle: saline with Tween-80): 0 of 4; survivor count (dose: 3200.0 mg/kg/injection, schedule: Q01DX001 (ip), vehicle: saline with Tween-80): 0 of 4; survivor count (dose: 6400.0 mg/kg/injection, schedule: Q01DX001 (ip), vehicle: saline with Tween-80): 0 of 4

How did the survivor count (dose: 30.0 mg/kg/injection, schedule: Q01DX005 (ip), vehicle: saline) turn out when `C=CC1CC[N-]CC1.[Cl][Cu][Cl]` was run?
Its survivor count is 0 of 6.

What about the survivor count (dose: 60.0 mg/kg/injection, schedule: Q01DX005 (ip), vehicle: saline) of the same compound?
Its survivor count is 0 of 6.

What about the survivor count (dose: 120.0 mg/kg/injection, schedule: Q01DX005 (ip), vehicle: saline) of the same compound?
The survivor count was 0 of 6.

What about the survivor count (dose: 240.0 mg/kg/injection, schedule: Q01DX005 (ip), vehicle: saline) of the same compound?
The survivor count was 0 of 6.

For `CN(C)CC[N+](C)(C)Cc1ccc(C[N+](C)(C)CC[N+](C)(C)Cc2ccc(CCl)cc2)cc1`, which survivor count (dose: 100.0 mg/kg/injection, schedule: Q04DX003 (ip), vehicle: saline with Tween-80) is on record?
Its survivor count is 2 of 6.

And the survivor count [1]?
The survivor count was 0 of 6.

What about the survivor count [2] of the same compound?
Its survivor count is 0 of 6.

For `CC1S(=O)(=O)OCCCOS1(=O)=O`, which T/C (dose: 12.5 mg/kg/injection, schedule: Q01DX005 (ip), vehicle: Klucel (hydroxypropylcellulose) (HPC)) is on record?
The T/C was 133 % of control.

What about the T/C (dose: 25.0 mg/kg/injection, schedule: Q01DX005 (ip), vehicle: Klucel (hydroxypropylcellulose) (HPC)) of the same compound?
Its T/C is 144 % of control [5 of 6 alive].

What about the survivor count [3] of the same compound?
Its survivor count is 0 of 6 and 2 of 6.

What about the survivor count (dose: 100.0 mg/kg/injection, schedule: Q01DX005 (ip), vehicle: Klucel (hydroxypropylcellulose) (HPC)) of the same compound?
Its survivor count is 0 of 6.

`CC(=NC(C)C)Nc1ccccc1` was tested. Which survivor count [4] did it give?
The survivor count was 0 of 6.

What does the source list for `O=C1OC(OC/C(Br)=C(\Br)COC2OC(=O)C(Cl)=C2Cl)C(Cl)=C1Cl` (stereo not drawn)?
survivor count (dose: 60.0 mg/kg/injection, schedule: Q01DX005 (ip), vehicle: saline with Tween-80): 4 of 6; survivor count (dose: 120.0 mg/kg/injection, schedule: Q01DX005 (ip), vehicle: saline with Tween-80): 2 of 6; survivor count [5]: 3 of 6

For `CCC[CH2][Sn]([Cl])([CH2]C)[O][Sn]([Cl])([CH2]C)[CH2]CCC` (stereo not drawn), which T/C (dose: 6.25 mg/kg/injection, schedule: Q01DX009 (ip), vehicle: saline) is on record?
The T/C was 137 % of control.

What about the T/C (dose: 12.5 mg/kg/injection, schedule: Q01DX009 (ip), vehicle: saline) of the same compound?
Its T/C is 135 % of control.

What about the T/C (dose: 25.0 mg/kg/injection, schedule: Q01DX009 (ip), vehicle: saline) of the same compound?
The T/C was 135 % of control [5 of 6 alive].

What about the T/C [6] of the same compound?
Its T/C is 148 % of control [5 of 6 alive].

And the survivor count [6]?
Its survivor count is 0 of 6.

What about the survivor count (dose: 100.0 mg/kg/injection, schedule: Q01DX009 (ip), vehicle: saline) of the same compound?
Its survivor count is 2 of 6.

What about the survivor count [7] of the same compound?
The survivor count was 0 of 6.

Which T/C [1] does the source give for `COc1cc(C(=O)CO)cc(OC)c1OC(C)=O` here?
The T/C was 125 % of control.

What about the survivor count [2] of the same compound?
The survivor count was 6 of 6 (2×).

Which survivor count [5] does the source give for `O=C(/C=C/c1c[nH]c2ccccc12)c1ccccc1[N+](=O)[O-]` here?
Its survivor count is 6 of 6.

For `CCCCN=C(N=C(N)N)NCC`, which survivor count [8] is on record?
The survivor count was 0 of 6.

What does the source list for `c1ccc2c(Nc3ccc(C4=NCCN4)cc3)nnc(Nc3ccc(C4=NCCN4)cc3)c2c1`?
T/C (dose: 25.0 mg/kg/injection, schedule: Q04DX003 (ip), vehicle: saline with Tween-80): 127 % of control; T/C (dose: 50.0 mg/kg/injection, schedule: Q04DX003 (ip), vehicle: saline with Tween-80): 127 % of control; survivor count [1]: 0 of 6; survivor count [2]: 0 of 6

Which survivor count [3] does the source give for `CCNC(=O)/C=C(C)/C=C/C=C(C)/C=C/c1c(C)cc(OC)c(C)c1C` here?
The survivor count was 6 of 6.

Which results are given for `O=C1CSC(=Nc2ccccc2)N1c1ccc(-n2c(-c3ccc(N=Cc4ccc(Cl)cc4)cc3)nc3ccccc3c2=O)cc1`?
survivor count (dose: 120.0 mg/kg/injection, schedule: Q01DX005 (ip), vehicle: Klucel (hydroxypropylcellulose) (HPC)): 6 of 6; survivor count [9]: 6 of 6

Which survivor count [5] does the source give for `COC(=O)c1nnn(-c2cccc(Cl)c2)c1N` here?
Its survivor count is 3 of 6.

Which results are given for `O=C(NC1CCCCC1)ON1C(=O)C2C3C=CC(C3)C2C1=O` (stereo not drawn)?
T/C (dose: 12.5 mg/kg/injection, schedule: Q01DX009 (ip), vehicle: saline with Tween-80): 128 % of control; survivor count [10]: 4 of 6; survivor count [11]: 2 of 6; survivor count [4]: 0 of 6

With `N#Cc1c(-c2ccc(Cl)cc2)c(-c2ccc(Cl)cc2)nn(CCOC(=O)CN)c1=O` as the compound, how does the survivor count (dose: 50.0 mg/kg/injection, schedule: Q01DX005 (ip), vehicle: distilled water + Tween-80) read?
Its survivor count is 0 of 6 and 6 of 6.

And the T/C (dose: 50.0 mg/kg/injection, schedule: Q04DX002 (ip), vehicle: distilled water + Tween-80)?
Its T/C is 126 and 137 % of control.

What about the survivor count (dose: 100.0 mg/kg/injection, schedule: Q01DX005 (ip), vehicle: distilled water + Tween-80) of the same compound?
The survivor count was 0 of 6.

And the survivor count [12]?
The survivor count was 5 of 6.

And the survivor count (dose: 100.0 mg/kg/injection, schedule: Q04DX002 (ip), vehicle: distilled water + Tween-80)?
Its survivor count is 5 of 6 and 6 of 6.

What about the survivor count (dose: 200.0 mg/kg/injection, schedule: Q01DX005 (ip), vehicle: distilled water + Tween-80) of the same compound?
The survivor count was 0 of 6.

And the survivor count [8]?
The survivor count was 0 of 6.

And the survivor count (dose: 200.0 mg/kg/injection, schedule: Q04DX002 (ip), vehicle: distilled water + Tween-80)?
The survivor count was 5 of 6.

`CCSC(=S)N=Nc1c(O)n(C)c2ccccc12` was tested. Which survivor count [7] did it give?
Its survivor count is 6 of 6.

`CCn1c2ccccc2c2cc(NC(=O)N(CCCl)N=O)ccc21` was tested. Which T/C (dose: 25.0 mg/kg/injection, schedule: Q01DX009 (ip), vehicle: saline with Tween-80) did it give?
The T/C was 133 and 146 % of control.

What about the T/C [10] of the same compound?
The T/C was 134 and 147 % of control.

With `CC(C)N1CSC(=S)N(Cc2ccccc2)C1` as the compound, how does the survivor count [4] read?
Its survivor count is 1 of 6.

What about the survivor count (dose: 400.0 mg/kg/injection, schedule: Q01DX009 (ip), vehicle: saline with Tween-80) of the same compound?
Its survivor count is 0 of 6.

For `Cc1cc(Cl)ccc1N=C(N)N`, which survivor count [11] is on record?
Its survivor count is 3 of 5.

What about the survivor count [4] of the same compound?
The survivor count was 0 of 6.

For `CCOc1nc(=O)[nH]c2c1CCCC2`, which survivor count [9] is on record?
The survivor count was 2 of 6.

For `CN(C)c1ccc(N)c(N)c1`, which survivor count (dose: 50.0 mg/kg/injection, schedule: Q01DX005 (ip), vehicle: saline) is on record?
Its survivor count is 2 of 5.

What about the survivor count [12] of the same compound?
The survivor count was 0 of 5.

And the survivor count [8]?
The survivor count was 0 of 5.

And the survivor count [7]?
Its survivor count is 0 of 6.

And the survivor count (dose: 400.0 mg/kg/injection, schedule: Q01DX009 (ip), vehicle: saline)?
The survivor count was 0 of 6.

And the survivor count (dose: 600.0 mg/kg/injection, schedule: Q01DX009 (ip), vehicle: saline)?
Its survivor count is 0 of 6.

With `O=C(Nc1ccccc1)Oc1cccc(/C=N/Sc2ccccc2)c1` as the compound, how does the survivor count [11] read?
The survivor count was 6 of 6.

And the survivor count [4]?
Its survivor count is 6 of 6.

Which survivor count (dose: 200.0 mg/kg/injection, schedule: Q01DX005 (ip), vehicle: Klucel (hydroxypropylcellulose) (HPC)) does the source give for `COC(=O)/C(C#N)=C/c1ccco1` here?
The survivor count was 0 of 5.

What does the source list for `CC(C)(S[S-])S[S-].[Ti].[c-]1[c-][c-][cH-][c-]1.[c-]1[c-][c-][cH-][c-]1`?
survivor count (dose: 60.0 mg/kg/injection, schedule: Q01DX005 (ip), vehicle: saline + Tween-80 + alcohol): 0 of 6; survivor count (dose: 120.0 mg/kg/injection, schedule: Q01DX005 (ip), vehicle: saline + Tween-80 + alcohol): 0 of 6; survivor count (dose: 240.0 mg/kg/injection, schedule: Q01DX005 (ip), vehicle: saline + Tween-80 + alcohol): 0 of 6
